These are yes or no findings as the source states them, for the method shown. In cells and extracts the contact can be indirect. Some results given as binding are weak or reduced against the parent protein; the word gives no strength.
Target: epidermal growth factor receptor (human (endogenous in MDA-MB-231)) (UniProt P00533)
Assay: co-IP; membrane protein fraction of MDA-MB-231 cells treated with EGF for 20 min; IP with the indicated antibodies and G plus/protein A-agarose beads, overnight at 4 °C; Western blot

Sequences of proteins named here, by UniProt entry; tags and fusion partners are left off.
UniProt O15379: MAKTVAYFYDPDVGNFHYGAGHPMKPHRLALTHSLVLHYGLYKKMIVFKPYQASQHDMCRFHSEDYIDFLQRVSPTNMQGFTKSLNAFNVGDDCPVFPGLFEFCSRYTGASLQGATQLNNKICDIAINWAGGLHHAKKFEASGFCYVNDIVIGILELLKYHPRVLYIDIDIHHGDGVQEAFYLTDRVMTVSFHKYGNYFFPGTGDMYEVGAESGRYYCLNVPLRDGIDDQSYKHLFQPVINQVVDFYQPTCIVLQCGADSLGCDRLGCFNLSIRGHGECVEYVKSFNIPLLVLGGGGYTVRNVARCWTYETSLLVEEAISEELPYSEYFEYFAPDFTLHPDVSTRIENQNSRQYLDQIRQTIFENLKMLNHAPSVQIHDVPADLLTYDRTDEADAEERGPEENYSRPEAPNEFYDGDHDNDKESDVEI

binding: binds
Substance: histone deacetylase 3 (from UniProt O15379 1-428) (enzyme)
